Test results taken from US7947715B2, “Isoxazoline compound and pesticide” (Nissan Chemical Industries, Ltd., priority 2006, dated 2011).
Some of these results come from one statement about several compounds together. At least one compound was matched to its structure with a doubt left.

System: cabbage moth (Plutella xylostella)
Assay: Insecticidal test against cabbage moth (leaf dip)
Assay type: in vivo
Details: second instar larva, after 6 days

SMILES	insecticidal rate (rate of dead insects) (10 ppm (**))	further results
CCN(Cc1ccc(C2=NOC(c3cc(Cl)c(Cl)c(Cl)c3)(C(F)(F)F)C2)cc1Cl)C(=O)C1CC1 (stereo not shown) [7-022]	–	insecticidal rate (rate of dead insects) (500 ppm): ≥ 80%
CCN(C(=O)C1CC1)C(C)c1ccc(C2=NOC(c3cc(Cl)c(Cl)c(Cl)c3)(C(F)(F)F)C2)cc1 (stereo not shown) [7-023]	–	insecticidal rate (rate of dead insects) (500 ppm): ≥ 80%
O=C(C1CC1)N(Cc1ccc(C2=NOC(c3cc(Cl)c(Cl)c(Cl)c3)(C(F)(F)F)C2)cc1Cl)CC1CC1 (stereo not shown) [7-024]	–	insecticidal rate (rate of dead insects) (500 ppm): ≥ 80%
CC(c1ccc(C2=NOC(c3cc(Cl)c(Cl)c(Cl)c3)(C(F)(F)F)C2)cc1)N(CC1CC1)C(=O)C1CC1 (stereo not shown) [7-025]	–	insecticidal rate (rate of dead insects) (500 ppm): ≥ 80%
COCN(Cc1ccc(C2=NOC(c3cc(Cl)c(Cl)c(Cl)c3)(C(F)(F)F)C2)cc1Cl)C(=O)C1CC1 (stereo not shown) [7-026]	–	insecticidal rate (rate of dead insects) (500 ppm): ≥ 80%
CSCCN(Cc1ccc(C2=NOC(c3cc(Cl)cc(Cl)c3)(C(F)(F)F)C2)cc1Cl)C(=O)C1CC1 (stereo not shown) [7-027]	≥ 80%	–
N#CCN(Cc1ccc(C2=NOC(c3cc(Cl)c(Cl)c(Cl)c3)(C(F)(F)F)C2)cc1Cl)C(=O)C1CC1 (stereo not shown) [7-028]	≥ 80%	–
COC(=O)CN(C(=O)C1CC1)C(C)c1ccc(C2=NOC(c3cc(Cl)c(Cl)c(Cl)c3)(C(F)(F)F)C2)cc1 (stereo not shown) [7-029]	≥ 80%	–
C#CCN(Cc1ccc(C2=NOC(c3cc(Cl)c(Cl)c(Cl)c3)(C(F)(F)F)C2)cc1Cl)C(=O)C1CC1 (stereo not shown) [7-030]	≥ 80%	–
N#CN(Cc1ccc(C2=NOC(c3cc(Cl)c(Cl)c(Cl)c3)(C(F)(F)F)C2)cc1Cl)C(=O)C1CC1 (stereo not shown) [7-031]	–	insecticidal rate (rate of dead insects) (500 ppm): ≥ 80%
CC(C)(C)OC(=O)N(Cc1ccc(C2=NOC(c3cc(Cl)cc(Cl)c3)(C(F)(F)F)C2)cc1C#N)C(=O)C1CC1 (stereo not shown) [7-034]	–	insecticidal rate (rate of dead insects) (100 ppm (*)): ≥ 80%
CN(Cc1ccc(C2=NOC(c3cc(Cl)c(Cl)c(Cl)c3)(C(F)(F)F)C2)cc1Cl)C(=O)C1CCOC1 (stereo not shown) [7-036]	≥ 80%	–
CN(Cc1ccc(C2=NOC(c3cc(Cl)c(Cl)c(Cl)c3)(C(F)(F)F)C2)cc1Cl)C(=O)c1c(F)cc(F)cc1F (stereo not shown) [7-040]	≥ 80%	–
CC(c1ccc(C2=NOC(c3cc(Cl)cc(Cl)c3)(C(F)(F)F)C2)cc1)N(C)C(=O)c1c(F)cc(F)cc1F (stereo not shown) [7-041]	≥ 80%	–
CCN(Cc1ccc(C2=NOC(c3cc(Cl)c(Cl)c(Cl)c3)(C(F)(F)F)C2)cc1Cl)C(=O)c1c(F)cc(F)cc1F (stereo not shown) [7-042]	≥ 80%	–
COCN(Cc1ccc(C2=NOC(c3cc(Cl)c(Cl)c(Cl)c3)(C(F)(F)F)C2)cc1Cl)C(=O)c1c(F)cc(F)cc1F (stereo not shown) [7-043]	≥ 80%	–
O=C1OCCN1Cc1ccc(C2=NOC(c3cc(Cl)cc(Cl)c3)(C(F)(F)F)C2)cc1Cl (stereo not shown) [7-044]	–	insecticidal rate (rate of dead insects) (500 ppm): ≥ 80%
C=C1COC(=O)N1Cc1ccc(C2=NOC(c3cc(Cl)c(Cl)c(Cl)c3)(C(F)(F)F)C2)cc1Cl (stereo not shown) [7-045]	–	insecticidal rate (rate of dead insects) (100 ppm (*)): ≥ 80%
CCNC(=O)N(CCSC)Cc1ccc(C2=NOC(c3cc(Cl)cc(Cl)c3)(C(F)(F)F)C2)cc1Cl (stereo not shown) [7-046]	–	insecticidal rate (rate of dead insects) (100 ppm (*)): ≥ 80%
CN(Cc1ccc(C2=NOC(c3cc(Cl)c(Cl)c(C(F)(F)F)c3)(C(F)(F)F)C2)cc1Br)C(=O)C1CC1 (stereo not shown) [7-078]	≥ 80%	–
CC(c1ccc(C2=NOC(c3cc(Cl)c(Cl)c(C(F)(F)F)c3)(C(F)(F)F)C2)cc1)N(C)C(=O)C1CC1 (stereo not shown) [7-079]	≥ 80%	–
CCN(Cc1ccc(C2=NOC(c3cc(C(F)(F)F)cc(C(F)(F)F)c3)(C(F)(F)F)C2)cc1Cl)C(=O)C1CC1 (stereo not shown) [7-080]	≥ 80%	–
CCN(Cc1ccc(C2=NOC(c3cc(Cl)c(Cl)c(C(F)(F)F)c3)(C(F)(F)F)C2)cc1Cl)C(=O)C1CC1 (stereo not shown) [7-081]	≥ 80%	–
CCN(Cc1ccc(C2=NOC(c3cc(Cl)c(Cl)c(C(F)(F)F)c3)(C(F)(F)F)C2)cc1Br)C(=O)C1CC1 (stereo not shown) [7-083]	≥ 80%	–
CCN(C(=O)C1CC1)C(C)c1ccc(C2=NOC(c3cc(Cl)c(Cl)c(C(F)(F)F)c3)(C(F)(F)F)C2)cc1 (stereo not shown) [7-084]	≥ 80%	–
